Laboratory results taken from PubChem BioAssay AID445 (National Center for Advancing Translational Sciences (NCATS), 2006).
The other results are listed elsewhere or left out. These are further read-outs of the screen, such as a control signal, another cell line or another target. No call is given for them. Compounds called inactive in the main read-out are mostly missing here. Words in brackets tell the shape of the fitted curve; partial curves, single points and poor fits give uncertain potencies.

Experiment: IkB Signaling
Conditions: ABC-DLBCL IkBa-CBG/CBR dual luciferase ratio (green luciferase fused to IkBa over red control in OCI-Ly3 lymphoma cells), 4 h
Outline: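 Curves were fitted separately to fusion (green), unfused (red) and ratio luminescence, then classed by r2, magnitude and activity. Cells: OCI-Ly3, 4 h compound plus doxycycline at 37C; 10 uM MG-132 defined full response.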

[1] = measured here: control luc red channel unless noted

In the case of `COc1ccc(Cl)cc1NC(=O)CN(C)S(=O)(=O)c1ccc2c(c1)CCCN2C(C)=O`, the AC50 [1] is reported as 15.8 µM [falling, partial curve].
In the case of `Cc1cccc(-n2c(=O)c3c(c4cc(C)ccc4n3C)n(CC(=O)NCCC3=CCCCC3)c2=O)c1`, the AC50 [1] is reported as 20 µM [falling, single point].
In the case of `COc1ccc(-c2noc(-c3cccnc3NCc3ccco3)n2)cc1`, the AC50 [1] is reported as 15.8 µM [rising, partial curve].
In the case of `CCOC(=O)CSc1nc2ccccc2c(=O)n1CCc1ccc(OC)c(OC)c1`, the AC50 [1] is reported as 39.8 µM [falling, single point].
With `O=C(Nc1ccc(Cl)cc1C(=O)Nc1ccc(Br)cn1)c1ccco1` the AC50 [1] was 15.8 µM [falling, partial curve].
For `Cc1ccc(Oc2c(C(F)(F)F)oc3cc(OCC(=O)NC4CCCCC4)ccc3c2=O)cc1`, the AC50 [1] was 0.316 µM [falling, full curve, poor fit].
For `CCc1cccc(C)c1NC(=O)CSc1nc(C)cc(C)c1C(=O)Nc1ccccc1`, the AC50 [1] was 31.6 µM [falling, single point].
For `COc1ccc(NC(=O)C(c2ccc(C)cc2)N(C)C(=O)Cc2cccs2)cc1` (configuration not stated), the AC50 [1] was 20 µM [falling, partial curve].
For `Cc1ccc2cc(CN(Cc3cccs3)Cc3nnnn3CC3CCCO3)c(=O)[nH]c2c1C` (configuration not stated), the AC50 [1] was 20 µM [falling, partial curve].
For `COc1ccc(-c2cccc(NS(=O)(=O)c3cc(C)c(OC)c(C)c3C)c2)nn1`, the AC50 [1] was 15.8 µM [falling, partial curve].
In the case of `Cc1ccc(-n2c(C)cc(C(=O)OCC(=O)N(C)C3CCS(=O)(=O)C3)c2C)cc1` (configuration not stated), the AC50 [1] is reported as 12.6 µM [falling, partial curve].
For `CC(C)N(Cc1ccccc1)c1ncnc2c1nnn2C`, the AC50 [1] was 3.16 µM [rising, single point].
In the case of `COc1ccccc1-c1nnc(SCCOc2ccccc2C)o1`, the AC50 [1] is reported as 39.8 µM [falling, single point].
In the case of `COc1ccc2c(c1)C(=O)N(c1ccccc1OC)C(=O)C2`, the AC50 [1] is reported as 10 µM [falling, partial curve].
In the case of `CCOC(=O)c1cc(-c2ccc(OC)c(S(=O)(=O)Nc3ccc(OC)cc3OC)c2)on1`, the AC50 [1] is reported as 25.1 µM [rising, single point] [measured here: IkB-luc green channel].
With `O=C(Nc1ccc2nc(SCCOc3ccccc3Cl)sc2c1)c1cccs1` the AC50 [1] was 6.31 µM [falling, partial curve].
For `CCOc1cc(N2CCOCC2)c(OCC)cc1NC(=O)c1cc(-c2ccco2)nc2ccccc12`, the AC50 [1] was 0.501 µM [falling, full curve, poor fit].
With `O=C(CSc1ncnc2sc3c(c12)CCCCC3)NCc1ccco1` the AC50 [1] was 10 µM [falling, partial curve].
For `O=C(NCc1ccc(Cl)cc1)C1CCCN(C(=O)c2cnn(-c3ccc(F)cc3)c2-n2cccc2)C1` (configuration not stated), the AC50 [1] was 15.8 µM [falling, partial curve].
For `CCCc1cc(C(=O)Nc2c(C)nn(Cc3ccc(C)cc3)c2C)no1`, the AC50 [1] was 25.1 µM [falling, partial curve].
In the case of `CCC(=O)N1CCc2cc(CNC(=O)C(CC)c3ccccc3)ccc21` (configuration not stated), the AC50 [1] is reported as 2 µM [rising, full curve, poor fit].
In the case of `Cc1nn(-c2ccccc2)c2sc(C(=O)OCc3nnc(-c4ccccc4)o3)cc12`, the AC50 [1] is reported as 3.16 µM [falling, single point].
In the case of `Cc1ccc(CNC(=O)CCSCc2ccccc2F)cc1`, the AC50 [1] is reported as 39.8 µM [falling, partial curve].
For `Cc1ccc(N(C(=O)COc2ccccc2C)S(=O)(=O)c2ccc(Cl)cc2)cc1`, the AC50 [1] was 10 µM [falling, partial curve].
In the case of `Cc1ccc(Nc2c(-c3cc(Br)ccc3F)nc3cc(C)ccn23)cc1`, the AC50 [1] is reported as 12.6 µM [falling, partial curve, poor fit].
In the case of `CCN(CC)S(=O)(=O)c1cc(-c2nnc(Nc3ccc(OC)c(C(N)=O)c3)c3ccccc23)ccc1C`, the AC50 [1] is reported as 2.51 µM [falling, partial curve].
For `Cc1ccc(NC(=O)c2cccc(N3CCCS3(=O)=O)c2)cc1`, the AC50 [1] was 39.8 µM [falling, partial curve].
With `CN(C)S(=O)(=O)c1ccc(S(=O)(=O)Nc2ccc3c(c2)oc2ccccc23)cc1` the AC50 [1] was 15.8 µM [falling, partial curve].
With `COc1ccccc1N1CCN(c2ccc(=O)n(CC(=O)Nc3ccc(F)c(F)c3)n2)CC1` the AC50 [1] was 12.6 µM [falling, partial curve].
In the case of `Cc1c(NC(=O)c2ccc(Cl)cc2)cc(C(C)C)c(O)c1S(=O)(=O)c1ccc(Cl)cc1`, the AC50 [1] is reported as 6.31 µM [falling, partial curve].
In the case of `Cc1nc2c(C(=O)NCCc3ccccc3)cnn2c(C)c1Cc1c(F)cccc1Cl`, the AC50 [1] is reported as 31.6 µM [falling, partial curve].
For `CC(C)(C)OC(=O)N1CCC(c2c(C(=O)NCc3cccs3)cnn2-c2ccc(F)cc2F)CC1`, the AC50 [1] was 20 µM [falling, partial curve].
For `O=C(O)c1cccc(N2CCCC2)c1`, the AC50 [1] was 398 nM [falling, full curve] [measured here: IkB-luc green channel].
For `Cc1noc(/C=C/N(C)C)c1S(=O)(=O)N1CCCC(C(=O)Nc2ccc(F)cc2F)C1` (configuration not stated), the AC50 [1] was 10 µM [falling, partial curve].
For `CCN(CC)C(=O)c1sc(NC(=O)C(C)Sc2nc(-c3ccccc3)cc(C(F)(F)F)n2)c(C(=O)OC)c1C` (configuration not stated), the AC50 [1] was 1.26 µM [falling, partial curve].
With `COc1ccc(C2=CC(c3ccccc3F)n3ncc(C(=O)Nc4ccc(C)cc4)c3N2)cc1` (configuration not stated) the AC50 [1] was 12.6 µM [falling, partial curve, poor fit].
For `CCOC(=O)c1c(-c2ccccc2)csc1NC(=O)c1nc(S(=O)(=O)CC)ncc1Cl`, the AC50 [1] was 7.94 µM [falling, full curve].
In the case of `Cc1cccc(-c2c3c(=O)n(C)c(=O)n(C)c3cn2-c2cc(N)c(Cl)cc2Cl)c1`, the AC50 [1] is reported as 31.6 µM [falling, partial curve].
In the case of `CN(C)c1oc(/C=C/c2ccc(F)cc2)nc1C#N`, the AC50 [1] is reported as 0.794 µM [rising, partial curve].
With `CCN(c1ccccc1)c1nnc(NC(=O)Nc2cccc(Cl)c2C)s1` the AC50 [1] was 25.1 µM [falling, single point].
With `CC(=O)c1ccc(NC(=O)Nc2nnc(N3CCCC(C)C3)s2)cc1` (configuration not stated) the AC50 [1] was 12.6 µM [falling, partial curve].
With `CSc1ccc(-c2nc3ncccn3c2Nc2ccc(C)c(C)c2)cc1` the AC50 [1] was 25.1 µM [falling, single point].
For `Nc1cc(=O)nc(SCC(=O)Nc2cccc(Cl)c2)n1CCc1ccccc1`, the AC50 [1] was 15.8 µM [falling, partial curve, poor fit].
With `Cc1cc(C)c2c(=O)cc(CSc3nnc(COc4ccccc4C)n3C)[nH]c2c1` the AC50 [1] was 39.8 µM [falling, single point].
For `COc1ccc(CC(=O)NCc2ccc3c(c2)CCN3C(=O)c2ccc(Cl)cc2)cc1OC`, the AC50 [1] was 7.94 µM [falling, partial curve].
For `CCOC(=O)c1ccc(N2C(=O)c3n[nH]c(-c4cccs4)c3C2c2ccc(C(C)C)cc2)cc1` (configuration not stated), the AC50 [1] was 12.6 µM [falling, single point].
With `Cc1ccc2c(c1)c1c(c(=O)n(-c3ccccc3C)c(=O)n1CC(=O)NCc1ccccc1)n2C` the AC50 [1] was 3.16 µM [falling, full curve].
For `Cc1cc(-c2ccc(C)c(S(=O)(=O)N(C)c3ccc(C)c(C)c3)c2)on1`, the AC50 [1] was 39.8 µM [falling, partial curve].
In the case of `COc1ccccc1NC(=O)Cn1c(=O)n(Cc2ccco2)c(=O)c2cccnc21`, the AC50 [1] is reported as 31.6 µM [falling, single point].
For `Cc1ccc(OCCCn2c(CCNC(=O)C3CCCCC3)nc3ccccc32)c(C)c1`, the AC50 [1] was 10 µM [falling, partial curve].
For `COC(=O)c1ccc(NCC(=O)c2ccccc2)cc1`, the AC50 [1] was 39.8 µM [rising, single point] [measured here: IkB-luc green channel].
With `CCOC(=O)c1c(Oc2ccc(OC)cc2)nnc(-c2ccccc2)c1-c1ccccc1` the AC50 [1] was 10 µM [falling, partial curve, poor fit].
With `COc1ccc(OC)c(NC(=O)CN2C(=O)c3ccccc3Sc3ccc(C(=O)N4CCCC4)cc32)c1` the AC50 [1] was 1.58 µM [rising, full curve].
In the case of `Fc1ccc(C(c2nnnn2Cc2ccccc2)N2CCSCC2)cc1` (configuration not stated), the AC50 [1] is reported as 39.8 µM [falling, single point].
For `CCS(=O)(=O)c1ncc(Cl)c(C(=O)N2CCN(c3cccc(Cl)c3)CC2)n1`, the AC50 [1] was 2 µM [falling, full curve].
In the case of `CC(=O)OC(C(=O)NCc1ccco1)c1cccnc1` (configuration not stated), the AC50 (measured here: IkB-luc green channel) is reported as 31.6 µM [rising, partial curve] and the AC50 (measured here: control luc red channel) is reported as 31.6 µM [falling, single point].
With `Cc1ccc(CNS(=O)(=O)c2cc(C(=O)Nc3cccc(C(F)(F)F)c3)ccc2F)cc1` the AC50 [1] was 31.6 µM [falling, partial curve].
For `Cc1cccc(N2CCN(C3(c4ccccc4)C(=O)c4ccccc4C3=O)CC2)c1C`, the AC50 [1] was 3.98 µM [falling, partial curve].
For `Cc1ccc(S(=O)(=O)N2CCOCC2)cc1C(=O)Nc1ccccc1C(=O)O`, the AC50 [1] was 3.98 µM [falling, full curve].
With `O=S(=O)(Nc1ccc2nc(-c3cccc(Cl)c3)oc2c1)c1ccccc1` the AC50 [1] was 25.1 µM [falling, partial curve].
With `Cc1ccc2onc(CC(=O)N(C)c3ccccc3)c2c1` the AC50 [1] was 6.31 µM [falling, partial curve].
